The supplement of paper PMC10849652
The list shows a part of the results. Residues, ends and D or L forms follow the SMILES beside them. *: point of attachment. Cbz = O=C(OCc1ccccc1)*

Protein sequences, listed by entry. Tags and fused reporters are not part of them. Lines headed by an entry give the natural chain unless they say otherwise; changes in a name come on top.
UniProt Q9Y3A6: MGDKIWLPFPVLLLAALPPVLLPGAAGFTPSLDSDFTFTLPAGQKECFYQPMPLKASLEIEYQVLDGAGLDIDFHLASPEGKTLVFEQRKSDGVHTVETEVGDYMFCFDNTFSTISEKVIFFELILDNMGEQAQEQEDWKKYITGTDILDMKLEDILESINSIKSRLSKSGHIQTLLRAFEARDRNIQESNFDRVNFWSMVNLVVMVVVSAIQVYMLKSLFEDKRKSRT
UniProt P63313: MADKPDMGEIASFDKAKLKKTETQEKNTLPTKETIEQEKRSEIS
UniProt Q04727: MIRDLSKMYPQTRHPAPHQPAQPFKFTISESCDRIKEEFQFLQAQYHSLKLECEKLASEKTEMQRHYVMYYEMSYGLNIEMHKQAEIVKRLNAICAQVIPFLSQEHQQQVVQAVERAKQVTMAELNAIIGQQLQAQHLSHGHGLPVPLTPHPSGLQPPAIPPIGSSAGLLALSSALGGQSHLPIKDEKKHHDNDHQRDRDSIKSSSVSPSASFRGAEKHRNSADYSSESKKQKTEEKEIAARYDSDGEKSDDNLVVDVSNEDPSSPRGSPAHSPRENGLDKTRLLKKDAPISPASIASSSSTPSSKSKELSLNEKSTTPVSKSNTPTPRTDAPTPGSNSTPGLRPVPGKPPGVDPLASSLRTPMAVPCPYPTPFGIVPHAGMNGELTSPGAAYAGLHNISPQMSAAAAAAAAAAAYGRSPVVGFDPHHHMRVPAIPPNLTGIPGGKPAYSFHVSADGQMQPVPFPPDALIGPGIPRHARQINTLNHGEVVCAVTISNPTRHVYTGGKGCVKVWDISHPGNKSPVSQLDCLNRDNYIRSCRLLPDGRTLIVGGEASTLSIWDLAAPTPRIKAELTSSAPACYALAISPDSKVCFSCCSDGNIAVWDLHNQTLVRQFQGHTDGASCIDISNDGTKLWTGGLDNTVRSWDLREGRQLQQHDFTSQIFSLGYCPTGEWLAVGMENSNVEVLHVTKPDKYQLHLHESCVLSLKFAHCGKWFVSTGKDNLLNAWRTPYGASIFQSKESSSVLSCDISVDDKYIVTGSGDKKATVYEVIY
UniProt Q9H0V1: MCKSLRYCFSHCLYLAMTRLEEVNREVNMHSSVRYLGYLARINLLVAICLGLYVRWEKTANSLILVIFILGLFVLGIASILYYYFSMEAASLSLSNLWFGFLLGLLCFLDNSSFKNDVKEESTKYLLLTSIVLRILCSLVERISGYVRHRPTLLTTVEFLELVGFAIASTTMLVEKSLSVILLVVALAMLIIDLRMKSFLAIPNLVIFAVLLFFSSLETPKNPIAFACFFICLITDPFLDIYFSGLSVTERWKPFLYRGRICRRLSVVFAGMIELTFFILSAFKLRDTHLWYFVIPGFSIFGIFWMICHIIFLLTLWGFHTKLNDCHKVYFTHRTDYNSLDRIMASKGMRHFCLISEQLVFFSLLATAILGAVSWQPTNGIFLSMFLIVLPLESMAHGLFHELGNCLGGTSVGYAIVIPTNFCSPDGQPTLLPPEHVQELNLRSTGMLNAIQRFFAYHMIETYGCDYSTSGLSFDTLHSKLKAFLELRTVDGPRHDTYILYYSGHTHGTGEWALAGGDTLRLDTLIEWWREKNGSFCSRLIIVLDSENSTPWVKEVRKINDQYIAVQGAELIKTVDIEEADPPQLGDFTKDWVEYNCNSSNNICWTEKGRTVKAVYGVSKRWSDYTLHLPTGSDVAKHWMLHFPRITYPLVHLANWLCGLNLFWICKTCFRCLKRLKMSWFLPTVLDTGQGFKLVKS
UniProt Q6PI78: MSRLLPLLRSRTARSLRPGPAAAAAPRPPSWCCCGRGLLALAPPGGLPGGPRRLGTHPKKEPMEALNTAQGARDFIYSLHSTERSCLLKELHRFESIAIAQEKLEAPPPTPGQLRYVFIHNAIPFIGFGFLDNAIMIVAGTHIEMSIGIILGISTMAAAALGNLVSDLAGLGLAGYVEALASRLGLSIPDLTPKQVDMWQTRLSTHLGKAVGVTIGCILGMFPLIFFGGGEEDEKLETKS
UniProt Q9H7F4: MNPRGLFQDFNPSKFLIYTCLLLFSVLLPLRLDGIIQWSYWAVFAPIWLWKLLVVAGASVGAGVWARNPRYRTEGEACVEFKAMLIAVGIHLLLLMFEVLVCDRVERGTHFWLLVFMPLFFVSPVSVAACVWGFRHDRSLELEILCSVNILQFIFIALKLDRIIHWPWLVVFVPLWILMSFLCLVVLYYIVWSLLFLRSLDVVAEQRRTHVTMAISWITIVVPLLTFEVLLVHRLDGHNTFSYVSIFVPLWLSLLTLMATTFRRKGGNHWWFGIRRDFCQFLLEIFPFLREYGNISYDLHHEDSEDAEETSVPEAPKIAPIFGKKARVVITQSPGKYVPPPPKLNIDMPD
UniProt Q9Y2S6, whole entry, looked up: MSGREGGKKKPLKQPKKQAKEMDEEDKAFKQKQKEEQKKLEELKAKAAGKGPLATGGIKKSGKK
UniProt Q0P6H9: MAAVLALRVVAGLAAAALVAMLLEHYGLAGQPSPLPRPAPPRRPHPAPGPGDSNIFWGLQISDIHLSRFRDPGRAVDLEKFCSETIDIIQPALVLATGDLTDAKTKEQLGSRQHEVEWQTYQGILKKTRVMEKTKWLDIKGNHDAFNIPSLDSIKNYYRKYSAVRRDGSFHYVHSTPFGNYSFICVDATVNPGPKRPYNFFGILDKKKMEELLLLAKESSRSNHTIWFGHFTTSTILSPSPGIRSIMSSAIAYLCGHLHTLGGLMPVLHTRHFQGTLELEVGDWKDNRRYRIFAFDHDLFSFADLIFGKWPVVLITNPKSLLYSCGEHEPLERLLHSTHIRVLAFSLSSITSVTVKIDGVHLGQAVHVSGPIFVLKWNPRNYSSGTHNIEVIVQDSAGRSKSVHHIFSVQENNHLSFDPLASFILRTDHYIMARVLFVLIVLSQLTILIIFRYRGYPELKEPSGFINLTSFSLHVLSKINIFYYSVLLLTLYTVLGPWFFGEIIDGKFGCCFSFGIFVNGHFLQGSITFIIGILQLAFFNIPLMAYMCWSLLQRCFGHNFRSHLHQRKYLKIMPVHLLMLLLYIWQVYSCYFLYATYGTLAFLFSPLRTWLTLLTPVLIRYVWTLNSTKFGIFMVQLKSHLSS
UniProt Q9Y4G6: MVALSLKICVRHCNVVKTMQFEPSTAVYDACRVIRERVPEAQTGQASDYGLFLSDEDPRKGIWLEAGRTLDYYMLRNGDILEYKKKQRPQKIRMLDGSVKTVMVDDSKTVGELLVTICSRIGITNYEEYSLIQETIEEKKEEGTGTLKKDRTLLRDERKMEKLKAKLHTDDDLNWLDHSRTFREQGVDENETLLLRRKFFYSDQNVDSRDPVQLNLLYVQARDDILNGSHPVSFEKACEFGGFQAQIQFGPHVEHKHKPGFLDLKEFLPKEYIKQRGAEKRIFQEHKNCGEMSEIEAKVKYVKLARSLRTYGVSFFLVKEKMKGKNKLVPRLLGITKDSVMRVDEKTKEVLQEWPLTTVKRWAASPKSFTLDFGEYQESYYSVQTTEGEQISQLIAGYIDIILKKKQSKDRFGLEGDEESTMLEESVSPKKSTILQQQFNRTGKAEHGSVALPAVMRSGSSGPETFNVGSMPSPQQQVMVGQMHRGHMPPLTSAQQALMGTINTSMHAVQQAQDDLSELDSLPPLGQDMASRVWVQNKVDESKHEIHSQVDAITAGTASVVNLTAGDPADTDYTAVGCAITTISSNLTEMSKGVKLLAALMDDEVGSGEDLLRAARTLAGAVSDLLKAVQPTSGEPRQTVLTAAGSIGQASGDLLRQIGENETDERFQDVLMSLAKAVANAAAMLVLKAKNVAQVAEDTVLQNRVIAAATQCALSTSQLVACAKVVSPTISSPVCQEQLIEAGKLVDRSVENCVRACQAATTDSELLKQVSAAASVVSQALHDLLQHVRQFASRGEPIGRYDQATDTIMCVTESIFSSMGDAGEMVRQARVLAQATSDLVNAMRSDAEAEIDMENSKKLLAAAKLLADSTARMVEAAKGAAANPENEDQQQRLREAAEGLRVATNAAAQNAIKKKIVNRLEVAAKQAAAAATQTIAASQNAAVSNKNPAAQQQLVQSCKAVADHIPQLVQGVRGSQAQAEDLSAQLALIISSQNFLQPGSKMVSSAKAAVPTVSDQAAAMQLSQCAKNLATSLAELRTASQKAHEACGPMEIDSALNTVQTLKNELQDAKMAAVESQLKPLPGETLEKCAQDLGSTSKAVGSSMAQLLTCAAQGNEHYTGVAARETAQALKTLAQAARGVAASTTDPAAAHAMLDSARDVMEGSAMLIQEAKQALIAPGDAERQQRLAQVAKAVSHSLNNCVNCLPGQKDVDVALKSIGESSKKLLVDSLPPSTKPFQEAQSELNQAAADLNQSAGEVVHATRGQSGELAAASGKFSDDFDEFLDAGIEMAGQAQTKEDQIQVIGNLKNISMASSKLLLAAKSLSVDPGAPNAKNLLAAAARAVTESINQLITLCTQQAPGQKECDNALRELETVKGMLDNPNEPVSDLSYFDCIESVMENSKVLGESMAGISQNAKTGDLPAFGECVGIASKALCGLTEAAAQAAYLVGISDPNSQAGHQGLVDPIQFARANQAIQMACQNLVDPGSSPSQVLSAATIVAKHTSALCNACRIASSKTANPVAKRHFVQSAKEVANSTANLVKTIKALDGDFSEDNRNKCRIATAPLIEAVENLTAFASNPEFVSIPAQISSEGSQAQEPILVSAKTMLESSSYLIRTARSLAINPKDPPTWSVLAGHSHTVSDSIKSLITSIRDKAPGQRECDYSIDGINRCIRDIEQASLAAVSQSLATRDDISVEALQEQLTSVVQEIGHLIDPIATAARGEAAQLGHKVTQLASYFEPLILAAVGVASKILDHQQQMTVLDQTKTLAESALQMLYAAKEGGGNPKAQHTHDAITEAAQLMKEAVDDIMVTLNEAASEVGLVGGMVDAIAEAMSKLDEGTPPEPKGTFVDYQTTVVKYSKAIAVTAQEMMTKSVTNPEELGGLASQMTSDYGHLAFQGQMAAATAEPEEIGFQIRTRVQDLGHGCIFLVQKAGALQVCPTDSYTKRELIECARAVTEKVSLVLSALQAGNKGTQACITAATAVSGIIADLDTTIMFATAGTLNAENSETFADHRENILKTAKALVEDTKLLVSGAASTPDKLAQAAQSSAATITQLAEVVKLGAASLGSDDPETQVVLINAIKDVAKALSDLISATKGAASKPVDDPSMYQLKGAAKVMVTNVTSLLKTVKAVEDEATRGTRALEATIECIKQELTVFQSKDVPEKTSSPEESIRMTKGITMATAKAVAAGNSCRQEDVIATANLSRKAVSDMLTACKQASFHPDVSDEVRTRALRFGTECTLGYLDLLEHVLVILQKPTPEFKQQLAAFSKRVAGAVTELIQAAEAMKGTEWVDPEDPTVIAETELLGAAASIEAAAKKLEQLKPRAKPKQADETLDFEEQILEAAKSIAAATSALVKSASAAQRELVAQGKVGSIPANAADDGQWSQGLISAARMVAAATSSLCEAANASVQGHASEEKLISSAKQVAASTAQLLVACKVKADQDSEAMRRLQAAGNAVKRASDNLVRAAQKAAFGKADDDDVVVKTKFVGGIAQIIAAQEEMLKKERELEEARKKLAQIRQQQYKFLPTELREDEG
UniProt Q9HC07: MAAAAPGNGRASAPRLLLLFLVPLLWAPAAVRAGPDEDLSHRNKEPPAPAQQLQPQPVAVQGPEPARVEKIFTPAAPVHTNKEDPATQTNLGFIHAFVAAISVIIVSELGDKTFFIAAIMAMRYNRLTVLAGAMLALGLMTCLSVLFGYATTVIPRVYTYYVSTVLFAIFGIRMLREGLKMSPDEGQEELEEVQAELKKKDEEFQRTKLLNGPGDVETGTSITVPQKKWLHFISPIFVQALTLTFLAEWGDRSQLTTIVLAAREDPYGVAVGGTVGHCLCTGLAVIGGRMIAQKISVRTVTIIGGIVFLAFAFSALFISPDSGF
UniProt P42166: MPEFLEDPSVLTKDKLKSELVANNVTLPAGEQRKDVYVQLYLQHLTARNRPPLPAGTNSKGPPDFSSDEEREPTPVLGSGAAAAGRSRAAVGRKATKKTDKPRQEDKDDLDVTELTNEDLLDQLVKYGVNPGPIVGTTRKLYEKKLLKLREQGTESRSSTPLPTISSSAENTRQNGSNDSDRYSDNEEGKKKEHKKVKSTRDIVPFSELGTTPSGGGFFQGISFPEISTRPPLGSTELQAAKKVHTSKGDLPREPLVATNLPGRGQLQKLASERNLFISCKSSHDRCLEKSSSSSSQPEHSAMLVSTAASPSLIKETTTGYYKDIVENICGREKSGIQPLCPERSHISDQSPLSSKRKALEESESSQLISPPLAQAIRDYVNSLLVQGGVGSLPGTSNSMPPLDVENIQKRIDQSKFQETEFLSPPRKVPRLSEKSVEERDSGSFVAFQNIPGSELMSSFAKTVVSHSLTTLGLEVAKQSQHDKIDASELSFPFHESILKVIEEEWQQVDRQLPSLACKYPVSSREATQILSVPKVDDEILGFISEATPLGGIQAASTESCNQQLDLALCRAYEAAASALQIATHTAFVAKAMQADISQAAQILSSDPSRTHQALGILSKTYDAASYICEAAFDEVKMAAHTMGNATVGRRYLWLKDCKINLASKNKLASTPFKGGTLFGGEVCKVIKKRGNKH

Legend:
Experiment in all cases: log2 fold change, soluble protein after heating vs DMSO (PISA); higher = thermal stabilisation; K562 cells, 10 uM, 30 min; active = over 0.2 and 3.5 SD of the protein, either way, in both replicates (recomputed)
erlotinib = compound: C#Cc1cccc(Nc2ncnc3cc(OCCOC)c(OCCOC)cc23)c1 [erlotinib]
How it was run: (§1)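 Quantification of soluble protein used TMTpro 16plex LC-MS/MS, with channel sums equalised. Samples were the supernatant after 21,000xg for 90 min of pooled aliquots from K562 cells (2×10^6 cells/mL) treated with 10 μM compound for 30 min, heated for 3 min over 48°C-58°C, and extracted in PBS with 0.5% NP-40 at 4°C. Values, from duplicates, describe thermal stability against control samples on a log2 fold-change scale.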

[1] = compound: C/C(=N\NC(=O)C1=CC(=CC=C1)S(=O)(=O)N2CCOCC2)/C3=C(C=CC(=C3)Cl)O
How it was run: as §1

[2] = compound: C1=CC(=C(C=C1Cl)C2=NC3=NC=CN=C3C(=N2)NC4=CC=NC=C4)F
How it was run: as §1

[3] = compound: C1=CC(=CC=C1C2=NC3=C(N2)C=C(C=C3)C(=O)N)OC4=CC=C(C=C4)Cl
How it was run: as §1

[4] = compound: C1=CC2=C(C=CC(=C2)/C=C\3/C(=O)NC(=NCC4=CC=CS4)S3)N=C1
How it was run: as §1

[5] = compound: C1=CC2=NC=CN=C2C=C1/C=C/3\C(=O)NC(=O)S3
How it was run: as §1

[6] = compound: C1=CC=C(C=C1)C2=NC(=C(N2)C3=CC=NC=C3)C4=CC(=C(C=C4)Cl)O
How it was run: as §1

[7] = compound: C1=CC=C2C(=C1)C3=NNC4=CC=CC(=C43)C2=O
How it was run: as §1

[8] = compound: C1CCN(C1)C(=O)NC2=CC=CC(=C2)NC3=NC=C(C(=N3)NCCC4=CN=CN4)Br
How it was run: as §1

[9] = compound: C1CN(CCC1(CC2=CC=C(C=C2)Cl)N)C3=NC=NC4=C3C=CN4
How it was run: as §1

IRAK-1-4 Inhibitor I = compound: C1COCCN1CCN2C3=CC=CC=C3N=C2NC(=O)C4=CC(=CC=C4)[N+](=O)[O-] [IRAK-1-4 Inhibitor I]
How it was run: as §1

ibrutinib = compound: C=CC(=O)N1CCC[C@@H](n2nc(-c3ccc(Oc4ccccc4)cc3)c3c(N)ncnc32)C1 [ibrutinib]
How it was run: as §1

[10] = compound: CC(=O)c1cnc2ccc(-c3cc(Cl)c(O)c(Cl)c3)nc2c1N[C@H]1CC[C@H](CN(C)C)CC1
How it was run: as §1

ralimetinib = compound: CC(C)(C)Cn1c(N)nc2ccc(-c3[nH]c(C(C)(C)C)nc3-c3ccc(F)cc3)nc21 [ralimetinib]
How it was run: as §1

[11] = compound: CC(C)(O)CC(=O)NCCn1ccc2ncnc(Nc3ccc(Oc4cccc(C(F)(F)F)c4)c(Cl)c3)c21
How it was run: as §1

[12] = compound: CC(C)C1=C2N=C(C=C(N2N=C1)NCC3=CC=CC=C3)NCCCCCCN
How it was run: as §1

[13] = compound: CC(C)C[C@@H](C=O)NC(=O)[C@H](CC(C)C)NC(=O)[C@H](CC(C)C)NC(=O)OCc1ccccc1
How it was run: as §1

pinometostat = compound: CC(C)N(C[C@H]1O[C@@H](n2cnc3c(N)ncnc32)[C@H](O)[C@@H]1O)[C@H]1C[C@@H](CCc2nc3cc(C(C)(C)C)ccc3[nH]2)C1 [pinometostat]
How it was run: as §1

[14] = compound: CC1=C(C(CC(=O)N1)C2=CC=C(C=C2)C(F)(F)F)C(=O)NC3=C(C=C4C(=C3)C=NN4)F
How it was run: as §1

[15] = compound: CC1=C(C2=C(C=C1)C(=O)C3=CC=CC=C3N2CCCN)C
How it was run: as §1

Measured: log2 fold change

TMED5 (UniProt Q9Y3A6)
inactive: erlotinib -0.001 | [1] -0.034 | [2] -0.029 | [3] -0.001 | [4] 0.023 | [5] 0.047 | [6] -0.004 | [7] 0.022 | [8] 0.026 | [9] -0.023 | IRAK-1-4 Inhibitor I 0.001 | ibrutinib -0.001 | [10] 0.028 | ralimetinib -0.064 | [11] -0.03 | [12] -0.118 | [13] -0.054 | pinometostat 0.046 | [14] -0.025 | [15] 0.012

TMSB10 (UniProt P63313)
inactive: erlotinib -0.128 | [1] -0.1 | [2] 0.255 | [3] 0.049 | [4] 0.093 | [5] 0.126 | [6] 0.06 | [7] -0.052 | [8] -0.019 | [9] -0.111 | IRAK-1-4 Inhibitor I 0.074 | ibrutinib -0.023 | [10] -0.1 | ralimetinib -0.143 | [11] -0.058 | [12] 0.097 | [13] -0.104 | pinometostat -0.068 | [14] -0.013 | [15] 0.275

TMEM186 (UniProt Q96B77)
inactive: erlotinib -0.035 | [1] 0.003 | [2] -0.025 | [3] 0.015 | [4] 0.004 | [5] 0.08 | [6] 0.018 | [7] 0.03 | [8] 0.025 | [9] 0.058 | IRAK-1-4 Inhibitor I -0.013 | ibrutinib 0.074 | [10] 0.03 | ralimetinib -0.04 | [11] 0.04 | [12] 0.009 | [13] 0.06 | pinometostat -0.011 | [14] 0.077 | [15] 0.008

TLE4 isoform 3 (UniProt Q04727)
inactive: erlotinib -0.034 | [1] 0.06 | [2] 0.018 | [3] 0.022 | [4] 0.008 | [5] 0.016 | [6] 0.009 | [7] -0.034 | [8] 0.027 | [9] 0.02 | IRAK-1-4 Inhibitor I 0.075 | ibrutinib -0.031 | [10] -0.015 | ralimetinib -0.078 | [11] -0.021 | [12] 0.018 | [13] -0.003 | pinometostat 0 | [14] 0.064 | [15] 0.01

TMEM199 (UniProt Q8N511)
inactive: erlotinib 0.106 | [1] -0.068 | [2] 0.014 | [3] 0.055 | [4] 0.101 | [5] 0.076 | [6] -0.003 | [7] -0.086 | [8] -0.056 | [9] 0.03 | IRAK-1-4 Inhibitor I 0.03 | ibrutinib 0.027 | [10] -0.044 | ralimetinib -0.032 | [11] -0.002 | [12] -0.003 | [13] -0.006 | pinometostat -0.005 | [14] -0.02 | [15] 0.2

TMEM168 (UniProt Q9H0V1)
inactive: erlotinib 0.014 | [1] 0.003 | [2] 0.048 | [3] 0.007 | [4] 0.044 | [5] 0.003 | [6] 0.062 | [7] -0.041 | [8] 0.058 | [9] 0.001 | IRAK-1-4 Inhibitor I 0.029 | ibrutinib 0.007 | [10] -0.015 | ralimetinib 0.029 | [11] -0.042 | [12] -0.005 | [13] -0.031 | pinometostat -0.044 | [14] -0.011 | [15] -0.018

TMEM65 (UniProt Q6PI78)
inactive: erlotinib -0.022 | [1] 0.014 | [2] 0.038 | [3] 0.023 | [4] -0.031 | [5] 0.127 | [6] -0.042 | [7] -0.067 | [8] -0.098 | [9] 0.045 | IRAK-1-4 Inhibitor I -0.056 | ibrutinib -0.024 | [10] -0.052 | ralimetinib -0.054 | [11] -0.177 | [12] 0.002 | [13] -0.021 | pinometostat 0.185 | [14] -0.025 | [15] 0.067

TMEM185B (UniProt Q9H7F4)
inactive: erlotinib 0.082 | [1] -0.034 | [2] -0.062 | [3] 0.043 | [4] 0.124 | [5] 0.061 | [6] 0.008 | [7] -0.022 | [8] -0.095 | [9] 0 | IRAK-1-4 Inhibitor I 0.018 | ibrutinib 0.012 | [10] -0.082 | ralimetinib -0.188 | [11] -0.012 | [12] -0.142 | [13] 0.096 | pinometostat -0.01 | [14] 0.017 | [15] 0.044

TMA7 (UniProt Q9Y2S6)
inactive: erlotinib 0.02 | [1] -0.006 | [2] -0.044 | [3] 0.033 | [4] 0.024 | [5] 0 | [6] -0.072 | [7] -0.035 | [8] 0.068 | [9] 0.024 | IRAK-1-4 Inhibitor I 0.054 | ibrutinib 0.017 | [10] 0.039 | ralimetinib -0.082 | [11] 0.005 | [12] 0.068 | [13] -0.006 | pinometostat -0.063 | [14] 0.03 | [15] -0.01

TMEM245 (UniProt Q9H330)
inactive: erlotinib 0 | [1] -0.005 | [2] 0.043 | [3] 0.041 | [4] -0.037 | [5] 0.072 | [6] -0.081 | [7] -0.007 | [8] 0.016 | [9] 0.108 | IRAK-1-4 Inhibitor I 0.026 | ibrutinib -0.006 | [10] 0.036 | ralimetinib -0.105 | [11] 0.009 | [12] 0.037 | [13] -0.019 | pinometostat -0.029 | [14] -0.008 | [15] -0.004

TMEM11 (UniProt P17152)
inactive: erlotinib 0.081 | [1] -0.028 | [2] 0.019 | [3] 0.037 | [4] -0.02 | [5] -0.01 | [6] 0.027 | [7] -0.016 | [8] -0.008 | [9] 0.014 | IRAK-1-4 Inhibitor I -0.015 | ibrutinib 0.027 | [10] 0.033 | ralimetinib 0.022 | [11] 0.044 | [12] -0.059 | [13] -0.09 | pinometostat 0.01 | [14] 0.016 | [15] 0.039

2 records picked at random from the list so far, as already listed:
TMEM65 (UniProt Q6PI78)
inactive: erlotinib -0.022 | [1] 0.014 | [2] 0.038 | [3] 0.023 | [4] -0.031 | [5] 0.127 | [6] -0.042 | [7] -0.067 | [8] -0.098 | [9] 0.045 | IRAK-1-4 Inhibitor I -0.056 | ibrutinib -0.024 | [10] -0.052 | ralimetinib -0.054 | [11] -0.177 | [12] 0.002 | [13] -0.021 | pinometostat 0.185 | [14] -0.025 | [15] 0.067

TMEM11 (UniProt P17152)
inactive: erlotinib 0.081 | [1] -0.028 | [2] 0.019 | [3] 0.037 | [4] -0.02 | [5] -0.01 | [6] 0.027 | [7] -0.016 | [8] -0.008 | [9] 0.014 | IRAK-1-4 Inhibitor I -0.015 | ibrutinib 0.027 | [10] 0.033 | ralimetinib 0.022 | [11] 0.044 | [12] -0.059 | [13] -0.09 | pinometostat 0.01 | [14] 0.016 | [15] 0.039

The results go on:

TMEM62 (UniProt Q0P6H9)
inactive: erlotinib 0.018 | [1] 0.07 | [2] 0.033 | [3] 0.1 | [4] 0.077 | [5] -0.036 | [6] 0.066 | [7] -0.03 | [8] 0.029 | [9] 0.02 | IRAK-1-4 Inhibitor I 0.018 | ibrutinib 0.075 | [10] -0.003 | ralimetinib -0.006 | [11] -0.005 | [12] 0.059 | [13] -0.044 | pinometostat -0.006 | [14] 0.018 | [15] 0.048

TLN2 (UniProt Q9Y4G6)
inactive: erlotinib 0.084 | [1] 0.002 | [2] 0.099 | [3] -0.003 | [4] -0.071 | [5] 0.048 | [6] -0.032 | [7] 0.013 | [8] -0.016 | [9] -0.016 | IRAK-1-4 Inhibitor I -0.048 | ibrutinib -0.069 | [10] 0.073 | ralimetinib -0.038 | [11] -0.036 | [12] -0.016 | [13] 0.151 | pinometostat -0.018 | [14] -0.036 | [15] -0.036

TMEM165 (UniProt Q9HC07)
inactive: erlotinib 0.005 | [1] -0.055 | [2] 0.056 | [3] -0.069 | [4] 0.024 | [5] 0.067 | [6] -0.051 | [7] 0.017 | [8] 0.08 | [9] 0 | IRAK-1-4 Inhibitor I -0.008 | ibrutinib -0.044 | [10] -0.023 | ralimetinib 0 | [11] 0.015 | [12] -0.001 | [13] -0.079 | pinometostat 0.003 | [14] -0.017 | [15] -0.031

TMED2 (UniProt Q15363)
inactive: erlotinib 0.024 | [1] -0.02 | [2] 0.057 | [3] -0.007 | [4] -0.007 | [5] 0.021 | [6] 0.073 | [7] -0.006 | [8] -0.015 | [9] 0.025 | IRAK-1-4 Inhibitor I 0.002 | ibrutinib 0.004 | [10] 0.026 | ralimetinib 0.006 | [11] -0.053 | [12] -0.077 | [13] -0.055 | pinometostat -0.053 | [14] -0.023 | [15] 0.023

TMPO (UniProt P42166)
inactive: erlotinib 0.112 | [1] -0.135 | [2] 0.072 | [3] 0 | [4] 0.17 | [5] 0.103 | [6] 0.06 | [7] -0.104 | [8] 0.068 | [9] 0.049 | IRAK-1-4 Inhibitor I 0.052 | ibrutinib 0 | [10] 0.047 | ralimetinib 0.039 | [11] -0.077 | [12] -0.176 | [13] -0.015 | pinometostat -0.012 | [14] 0.04 | [15] -0.016
